# In article PMC3688448:
# These are yes or no findings as the source states them, for the method shown. Binding seen in cells or lysates may run through a third protein. These calls come from enrichment with a bait or labelling near it, and not all partners need be listed.
# B1: Proteasome α5 subunit (protein, UniProt Q95083 1-244)
# chain: MFLTRSEYDRGVNTFSPEGRLFQVEYAIEAIKLGSTAIGICTPEGVVLAVEKRITSPLMVPSTVEKIVEVDKHIGCATSGLMADARTLIERARVECQNHWFVYNERMSIESCAQAVSTLAIQFGDSGDSDGAAAMSRPFGVAILFAGIEAGQPQLWHMDPSGTFVRHGAKAIGSGSEGAQQNLQDLFRPDLTLDEAIDISLNTLKQVMEEKLNSTNVEVMTMTKEREFYMFTKEEVEQHIKNIA
# B2: Ribosomal protein S12 (protein, UniProt P80455 1-139)
# chain: MADVDVDVPSAAPVLDGAMDINTALQEVLKKSLIADGLVHGIHQACKALDKRQAVLCILAESFDEPNYKKLVTALCNEHQIPLIRVDSHKKLGEWSGLCKIDKEGKPRKVCGCSVVVIKDFGEETPALDVVKDHLRQNS
# B3: Ribosomal protein L6 (protein, UniProt Q9V9W2 1-243)
# chain: MAPIEKAKKVAKSAKKGKKHPVNSYLKGGILRYSKAQMYKRRALYRLKDKKSPVVEKAKVPIKKSKASYPTKTFVKKRPSKANFSEHKRNTRRNLTPGTVLILLAGRHQGKRVVLLKVLASGLLLVTGPFALNSCPLRRVSQRYVIGTSSKVDLGAFKVPEHLNDAYFRRLKAKKDKKTGEADIFAAKKERFVPNEQRKKDQKEVDAALLKVIKAHPEGKFFAKYLQNMFALHSSQYPHRMRF
# B4: UDP-galactose 4'-epimerase (protein, UniProt Q9W0P5 1-350)
# chain: MAPPTVLVTGGAGYIGSHTVLEMLNAGYNVICVDNLCNAYSSGAKLPEALSRVQEITGKKVNFYRVDITDREQVRSVFQEHKIDMVAHFAALKAVGESCRIPLQYYHNNMTGTNVLLEAMADNNVFKFVYSSSATVYGEPKFLPVTEEHPTGNCTSPYGKTKYFTEEILKDLCKSDKRWAVVSLRYFNPVGAHISGRIGEDPNGEPNNLMPYIAQVAVGRRPSLSVYGSDFPTHDGTGVRDYIHIVDLAEGHVKALDKLRNIAETGFFAYNLGTGVGYSVLDMVKAFEKASGKKVNYTLVDRRSGDVATCYADATLADKKLGWKAERGIDKMCEDTWRWQSQNPNGYANK
# B5: eIF-5A (protein, UniProt Q9GU68 1-159)
# chain: MAELDDQFETTDSGASTTYPMQCSALRKNGFVMLKSRPCKIVEMSTSKTGKHGHAKVHMVGIDIFSNKKYEDICPSTHNMDVPNVKREDLQLIAISDDSFLTLMTESGDLREDLKVPEGELGEQLRLDFDSGKDLLCTVLKACGEECVIAIKTNTALDK
# B6: Mov34 (protein, UniProt P26270 1-338)
# chain: MPSQEVSVNKVIVHPLVLLSVVDHFNRMGKIGNQKRVVGVLLGCWRSKGVLDVSNSFAVPFDEDDKDKSVWFLDHDYLENMYGMFKKVNARERVVGWYHTGPKLHQNDIAINELVRRYCPNSVLVIIDAKPKDLGLPTEAYISVEEVHDDGSPTSKTFEHVPSEIGAEEAEEVGVEHLLRDIKDTTVGSLSQKITNQLMGLKGLNAQLRDIKQYLQRVGDSKMPINHQIVYQLQDIFNLLPDITNDQFTGTMYVKTNDQMLVVYLASMVRSIIALHNLINNKLANRDAEEGKSDSKEAKEKNKDSKDKDNKETKDKDGKKAEEKADKGKDEGGKGSRK
# B7: Ribosomal protein S16 (protein, UniProt Q9W237 1-148)
# chain: MQQKRREPVQAVQVFGRKKTATAVAYCKRGNGLLKVNGRPLEQIEPKVLQYKLQEPLLLLGKEKFAGVDIRVRVSGGGHVAQIYAIRQAISKALVAFYQKYVDEASKKEIKDILVQYDRTLLVGDPRRCEPKKFGGPGARARYQKSYR
# B8: Heat shock protein 26 (protein, UniProt P02517 1-208)
# chain: MSLSTLLSLVDELQEPRSPIYELGLGLHPHSRYVLPLGTQQRRSINGCPCASPICPSSPAGQVLALRREMANRNDIHWPATAHVGKDGFQVCMDVAQFKPSELNVKVVDDSILVEGKHEERQDDHGHIMRHFVRRYKVPDGYKAEQVVSQLSSDGVLTVSIPKPQAVEDKSKERIIQIQQVGPAHLNVKANESEVKGKENGAPNGKDK
# B9: Trip1 (protein, UniProt O02195 1-326)
# chain: MRPLMLQGHERSITQIKYNREGDLLFSCSKDQKPNVWYSLNGERLGTYDGHQGAVWCLDVDWESRKLITGAGDMTAKIWDVEYGTVIASIPTKSSVRTSNFSFSGNQAAYSTDKAMGQSCELFLIDVRNADSSLSEQEPTLRIPMTESKITSMLWGPLDETIITGHDNGNIAIWDIRKGQKVVDSGTDHSAGINDMQLSKDGTMFVTASKDTTAKLFDSESLMCLKTYKTERPVNSAAISPIMDHVVLGGGQDAMEVTTTSTKAGKFDSRFFHLIYEEEFARLKGHFGPINSLAFHPDGKSYASGGEDGFVRVQTFDSTYFENIFE
# B10: Rpt3 (protein, UniProt Q9V405 1-413)
# chain: MPYNMDVLIPEKDELSDLKLKDAHSSLDELDMEDLYVRYKKLQKTLEFIEVQEEYIKDEQRNLKKEYLHAQEEVKRIQSVPLVIGQFLEAVDQNTGIVGSTTGSNYYVRILSTIDRELLKPSASVALHKHSNALVDVLPPEADSSISMLQPDEKPDVSYADIGGMDMQKQEIREAVELPLTHFELYKQIGIDPPRGVLMYGPPGCGKTMLAKAVAHHTTASFIRVVGSEFVQKYLGEGPRMVRDVFRLAKENAPAIIFIDEIDAIATKRFDAQTGADREVQRILLELLNQMDGFDQTTNVKVIMATNRADTLDPALLRPGRLDRKIEFPLPDRRQKRLVFSTITSKMNLSEDVDLEEFVARPDKISGADINAICQEAGMHAVRENRYIVLAKDFEKGYKNNIKKDEQEHEFYK
# B11: Pros35 (protein, UniProt P12881 1-279)
# chain: MFRNQYDSDVTVWSPQGRLHQVEYAMEAVKLGTATVGLKNKDYAVLVALCKPTSELSDTQRKIIPIDDHLGISIAGLTADARVLSRYLRSECLNYKHSYDTTYPVSRLITNLGNKMQTTTQRYDRRPYGVGLLVAGYDERGPHIYQVTPSATFFNCKANSIGSRSQSARTYLEKNLNKFLDSSKDEIIRHGIRAILGTLPTDEQGKDAGQYDITVAIVGKDQPFTILSNKDSAKHVAIAKENDNDTPRNDDDDDRPSPPEEPAAGPRDPEVLVATEQRP
# B12: Rpt1 (protein, UniProt Q7KMQ0 1-433)
# chain: MPDYLGDDQRKVKHDEKEDKEIKSLDEGDIELLKTYGQSQYHKSIKSIEEDIQKAVKQVNELTGIKESDTGLAPPALWDLAADKQILQNEQPLQVARCTKIINADSDDPKYIINVKQFAKFVVDLADSVAPTDIEEGMRVGVDRNKYQIHIPLPPKIDPTVTMMQVEDKPDVTYSDVGGCKEQIEKLREVVETPLLHPEKFVNLGIEPPKGVLLFGPPGTGKTLCARAVANRTDACFIRVIGSELVQKYVGEGARMVRELFEMARSKKACLIFFDEIDAIGGARFDDGAGGDNEVQRTMLELINQLDGFDPRGNIKVLMATNRPDTLDPALMRPGRLDRKVEFGLPDQDGRSHIFKIHARSMSVERDIRFDLLARLCPNSTGAEIRSVCTEAGMFAIRARRKVATEKDFLEAVKKVIKSYAKFSATPRYMTYN
# How the values were obtained:
# [1] = target: PINCH-Protein A (transgene pCasPIN-PrA in Drosophila) (Drosophila melanogaster); test: affinity purification with mass spectrometry; PINCH-PrA captured on IgG Sepharose from lysates of 0-24 hour embryos (PINCH mutant rescued with the PINCH-PrA transgene); TLB (0.1% Triton, 50 mM Tris-HCl pH 7.9, 150 mM NaCl), 1.5 hours at 4°C; control wild-type w1118 embryos; two replicate …; MudPIT
# [2] = target: PINCH-Protein A (pMT-PINCH-PrA in S2 cells) (Drosophila melanogaster); test: affinity purification with mass spectrometry; PINCH-PrA captured on IgG Sepharose from lysates of S2 cells; TLB (0.1% Triton, 50 mM Tris-HCl pH 7.9, 150 mM NaCl), 1.5 hours at 4°C; control S2 cells expressing Protein A alone; MudPIT
# [3] = target: PINCH-Protein A (pMT-PINCH-PrA in S2 cells) (Drosophila melanogaster); test: affinity purification with mass spectrometry; iGEO: PINCH-PrA (IgG Sepharose) and Flag-PINCH (anti-Flag M2 agarose) complexes from S2 cell lysates in TLB, tri-colour CyDye 2D-GE with a vector control, confirmed on individual Deep Purple stained 2D gels in triplicate; spots present with both baits and absent in controls identified by nano-LC-MS/MS; PINCH^Q38A-PrA compared in separate pull-downs
# [4] = target: Flag-PINCH (pMT-Flag-PINCH in S2 cells) (Drosophila melanogaster); test: as above
Binder,binding [1],binding [2],binding [3],binding [4]
B1,binds,binds,–,–
B2,binds,binds,–,–
B3,binds,binds,–,–
B4,binds,binds,–,–
B5,binds,binds,–,–
B6,binds,binds,–,–
B7,binds,binds,–,–
B8,binds,binds,–,–
B9,binds,binds,–,–
B10,–,binds,binds,binds
B11,–,binds,binds,binds
B12,–,–,binds,binds
